Substitutions are numbered along the chain they refer to. No constants are given. Whether binding was seen depends on the method and setting. Some binding calls cover weakened binding; strength is not graded here. No end group written: not given here. fluorescein = N-terminal fluorescein label
Tests used:
Assay in all cases: fluorescence polarisation
BP230 28-162 (human) = target: T1, BP230 28-162 (human) (UniProt Q03001)
T1 sequence (chain, Oregon Green 488 on thiol groups): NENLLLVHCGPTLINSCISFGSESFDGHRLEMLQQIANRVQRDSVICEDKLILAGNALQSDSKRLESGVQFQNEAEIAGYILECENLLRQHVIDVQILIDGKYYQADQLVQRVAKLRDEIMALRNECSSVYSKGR

[1] = target: T2, BP230 SR2 (56-162) (human) (UniProt Q03001)
T2 sequence (chain, Oregon Green 488 on thiol groups (fluorescence anisotropy assay)): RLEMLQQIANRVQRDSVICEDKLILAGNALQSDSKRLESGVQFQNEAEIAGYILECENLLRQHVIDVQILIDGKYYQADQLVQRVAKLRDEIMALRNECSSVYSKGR

[2] = target: T3, BP230 10-162 S46D (human) (UniProt Q03001)
T3 sequence (chain, Oregon Green 488 on thiol groups): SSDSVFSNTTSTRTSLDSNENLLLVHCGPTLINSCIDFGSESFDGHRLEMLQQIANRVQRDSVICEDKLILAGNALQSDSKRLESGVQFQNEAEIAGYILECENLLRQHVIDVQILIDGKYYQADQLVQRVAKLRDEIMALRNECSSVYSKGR

[3] = target: T4, BP230/plectin chimera (BP230 19-58 and the SR2 of plectin, 420-530) (UniProt Q03001)
T4 sequence (chain, Oregon Green 488 on thiol groups): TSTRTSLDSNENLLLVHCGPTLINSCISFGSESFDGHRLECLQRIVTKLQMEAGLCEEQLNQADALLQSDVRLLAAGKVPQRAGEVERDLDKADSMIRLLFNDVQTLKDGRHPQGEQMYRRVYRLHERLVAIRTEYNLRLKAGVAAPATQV

BP230 46-162 (human) = target: T5, BP230 46-162 (human) (UniProt Q03001)
T5 sequence (chain, Oregon Green 488 on thiol groups): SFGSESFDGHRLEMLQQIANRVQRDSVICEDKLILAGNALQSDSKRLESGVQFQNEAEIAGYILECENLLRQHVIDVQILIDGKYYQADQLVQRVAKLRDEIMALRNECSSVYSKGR

BP230 32-162 (human) = target: T6, BP230 32-162 (human) (UniProt Q03001)
T6 sequence (chain, Oregon Green 488 on thiol groups): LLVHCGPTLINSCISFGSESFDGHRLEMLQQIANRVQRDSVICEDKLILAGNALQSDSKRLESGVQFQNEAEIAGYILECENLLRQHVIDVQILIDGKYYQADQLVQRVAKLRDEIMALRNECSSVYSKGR

BP230 37-162 (human) = target: T7, BP230 37-162 (human) (UniProt Q03001)
T7 sequence (chain, Oregon Green 488 on thiol groups): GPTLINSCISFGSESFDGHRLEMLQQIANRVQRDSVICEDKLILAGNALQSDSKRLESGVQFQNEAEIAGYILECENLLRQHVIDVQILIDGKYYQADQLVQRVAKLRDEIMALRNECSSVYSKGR

[4] = target: T8, BP230 10-162 S51D (human) (UniProt Q03001)
T8 sequence (chain, Oregon Green 488 on thiol groups): T3 sequence (chain, Oregon Green 488 on thiol groups) with D37S, S42D

[5] = target: T9, BP230 10-162 S27D (human) (UniProt Q03001)
T9 sequence (chain, Oregon Green 488 on thiol groups): T3 sequence (chain, Oregon Green 488 on thiol groups) with S18D, D37S

[6] = target: T10, BP230 10-162 S43D (human) (UniProt Q03001)
T10 sequence (chain, Oregon Green 488 on thiol groups): T3 sequence (chain, Oregon Green 488 on thiol groups) with S34D, D37S

binding (BP230 28-162 (human)): binds weakly | binding [1]: no binding | binding [2]: binds weakly | binding [3]: binds weakly | binding (BP230 46-162 (human)): no binding | binding (BP230 32-162 (human)): binds weakly | binding (BP230 37-162 (human)): binds weakly | binding [4]: binds weakly | binding [5]: binds weakly | binding [6]: binds weakly
B1: integrin β4 1436-1666 (β4-CS-FnIII-3,4) (domain or fragment, human, UniProt P16144-2 1436-1666, looked up)
chain: LPRDYSTLTSVSSHDSRLTAGVPDTPTRLVFSALGPTSLRVSWQEPRCERPLQGYSVEYQLLNGGELHRLNIPNPAQTSVVVEDLLPNHSYVFRVRAQSQEGWGREREGVITIESQVHPQSPLCPLPGSAFTLSTPSAPGPLVFTALSPDSLQLSWERPRRPNGDIVGYLVTCEMAQGGGPATAFRVDGDSPESRLTVPGLSENVPYKFKVQARTTEGFGPEREGIITIES

From publication doi:10.1101/402123 (bioRxiv, 2018)
